This passage reports binding results from paper PMC4996131.

The chains behind the UniProt entries cited, without tags or fusion partners.
UniProt P46940: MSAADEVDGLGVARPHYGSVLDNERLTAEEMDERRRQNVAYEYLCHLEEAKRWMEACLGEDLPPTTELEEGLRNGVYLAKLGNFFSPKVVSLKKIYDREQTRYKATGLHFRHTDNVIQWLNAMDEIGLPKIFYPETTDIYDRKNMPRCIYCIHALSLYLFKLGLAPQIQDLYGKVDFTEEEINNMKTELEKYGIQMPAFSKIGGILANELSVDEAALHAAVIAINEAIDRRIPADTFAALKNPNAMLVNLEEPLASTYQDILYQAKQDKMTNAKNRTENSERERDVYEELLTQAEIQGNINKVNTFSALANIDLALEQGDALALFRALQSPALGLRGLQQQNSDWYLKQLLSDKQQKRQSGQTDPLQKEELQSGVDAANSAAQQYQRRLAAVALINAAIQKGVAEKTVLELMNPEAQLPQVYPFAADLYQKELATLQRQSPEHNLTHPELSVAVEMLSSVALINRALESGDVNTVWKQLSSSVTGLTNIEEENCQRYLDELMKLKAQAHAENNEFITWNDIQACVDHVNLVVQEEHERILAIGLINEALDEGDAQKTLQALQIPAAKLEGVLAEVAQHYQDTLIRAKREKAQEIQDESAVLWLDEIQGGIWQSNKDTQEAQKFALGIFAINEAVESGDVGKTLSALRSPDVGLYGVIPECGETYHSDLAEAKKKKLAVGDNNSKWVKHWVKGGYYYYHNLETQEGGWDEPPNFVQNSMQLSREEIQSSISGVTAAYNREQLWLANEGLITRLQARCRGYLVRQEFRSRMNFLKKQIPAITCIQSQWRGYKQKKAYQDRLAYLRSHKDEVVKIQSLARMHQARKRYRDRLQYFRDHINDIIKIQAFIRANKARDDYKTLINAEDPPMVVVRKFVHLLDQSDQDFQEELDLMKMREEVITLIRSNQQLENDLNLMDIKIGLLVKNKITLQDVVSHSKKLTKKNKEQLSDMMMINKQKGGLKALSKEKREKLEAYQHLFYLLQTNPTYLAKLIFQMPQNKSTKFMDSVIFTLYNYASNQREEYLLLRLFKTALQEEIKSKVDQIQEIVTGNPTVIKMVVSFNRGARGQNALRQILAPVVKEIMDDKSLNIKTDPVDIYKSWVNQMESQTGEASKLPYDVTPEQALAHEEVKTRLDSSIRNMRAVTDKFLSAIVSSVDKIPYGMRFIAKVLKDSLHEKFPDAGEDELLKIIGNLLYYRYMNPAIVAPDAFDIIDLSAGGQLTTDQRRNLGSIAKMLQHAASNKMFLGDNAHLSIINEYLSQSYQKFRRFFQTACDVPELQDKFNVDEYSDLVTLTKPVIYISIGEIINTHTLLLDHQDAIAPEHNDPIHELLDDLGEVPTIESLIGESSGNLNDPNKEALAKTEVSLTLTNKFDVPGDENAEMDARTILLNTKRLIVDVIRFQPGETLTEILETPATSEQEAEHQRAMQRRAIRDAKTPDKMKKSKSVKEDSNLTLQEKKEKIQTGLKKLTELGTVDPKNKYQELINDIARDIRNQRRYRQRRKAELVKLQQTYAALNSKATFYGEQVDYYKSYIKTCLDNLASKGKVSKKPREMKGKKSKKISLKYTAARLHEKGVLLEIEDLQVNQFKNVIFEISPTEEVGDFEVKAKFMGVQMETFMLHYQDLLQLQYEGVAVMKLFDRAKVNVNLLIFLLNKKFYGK
UniProt P35222: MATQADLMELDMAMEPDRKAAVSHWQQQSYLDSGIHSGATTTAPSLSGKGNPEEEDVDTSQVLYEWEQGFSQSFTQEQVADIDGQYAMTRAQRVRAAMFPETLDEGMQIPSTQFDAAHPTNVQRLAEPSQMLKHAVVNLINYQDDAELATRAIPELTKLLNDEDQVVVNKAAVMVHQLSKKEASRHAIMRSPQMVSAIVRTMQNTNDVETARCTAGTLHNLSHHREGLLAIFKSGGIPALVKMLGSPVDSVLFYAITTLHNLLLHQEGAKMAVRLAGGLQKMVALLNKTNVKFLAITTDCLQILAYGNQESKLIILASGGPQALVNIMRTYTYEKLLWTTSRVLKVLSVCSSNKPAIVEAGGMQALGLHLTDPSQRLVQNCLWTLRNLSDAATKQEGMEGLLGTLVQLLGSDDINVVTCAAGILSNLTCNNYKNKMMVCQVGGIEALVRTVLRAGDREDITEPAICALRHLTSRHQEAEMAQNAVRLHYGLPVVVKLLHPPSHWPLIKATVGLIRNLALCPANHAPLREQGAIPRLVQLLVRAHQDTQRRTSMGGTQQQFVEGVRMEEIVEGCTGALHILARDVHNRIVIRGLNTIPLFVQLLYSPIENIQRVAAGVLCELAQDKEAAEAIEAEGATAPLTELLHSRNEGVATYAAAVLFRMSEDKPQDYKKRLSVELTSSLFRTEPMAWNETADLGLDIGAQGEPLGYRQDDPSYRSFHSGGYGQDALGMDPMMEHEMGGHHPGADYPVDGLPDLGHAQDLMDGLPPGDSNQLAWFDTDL

The test has as its target IQGAP1 (human (endogenous in primary RPE cells)) (UniProt P46940). As to the kind of experiment: co-IP; endogenous proteins in RIPA lysates of human primary RPE cells (500 µg protein); antibody to β-catenin, IQGAP1 or pan-cadherin with Dynabeads protein G, 4 °C overnight, three washes in RIPA; blot for the partner; cells treated with PBS, H2O2 (10 µmol/l) or TNFα (20 ng/ml) for 5 h or overnight, IQGAP1 or control siRNA, Ad-GFP or Ad-63E (active Rap1a).

These are yes or no findings as the source states them, for the method shown. Binding seen in cells or lysates may run through a third protein. Some results given as binding are weak or reduced against the parent protein; the word gives no strength.

β-catenin (from UniProt P35222 1-781): the binding result is on record as “binds”.
